Source: PubChem BioAssay AID2517 (National Center for Advancing Translational Sciences (NCATS), 2010)
Among all 350,000 compounds or so, about 1,200 (0.34%) were called active. The shares of active, inactive and inconclusive entries below differ from those in the screen. The call rests on the fitted dose curve; in most records, active means well fitted inhibition curve with a large enough effect; inconclusive means small, poorly fitted or top-dose-only effect; inactive means no such curve, though single readings can be large or run the other way. Potencies of inconclusive entries are doubtful fits and often do not repeat.
Further: nearly all actives have a fitted effect of over 55% in size.
Potency means the concentration at half of the fitted maximal effect.
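Wherever activity change, negative = inhibition is given: plate controls were vehicle for no effect and reference inhibitor for full effect.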

By UniProt entry, the sequences of proteins in these tests, tags left out.
UniProt P27695, whole entry, looked up: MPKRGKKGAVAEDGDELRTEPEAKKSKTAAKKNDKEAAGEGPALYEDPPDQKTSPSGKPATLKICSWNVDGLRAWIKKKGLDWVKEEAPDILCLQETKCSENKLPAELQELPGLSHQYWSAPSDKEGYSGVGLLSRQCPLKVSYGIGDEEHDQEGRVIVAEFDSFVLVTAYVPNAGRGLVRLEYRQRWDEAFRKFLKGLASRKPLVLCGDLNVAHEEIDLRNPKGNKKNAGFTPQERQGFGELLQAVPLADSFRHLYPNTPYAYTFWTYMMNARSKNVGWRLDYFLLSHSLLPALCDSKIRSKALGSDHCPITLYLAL

What follows are compounds tested against DNA repair nuclease/redox regulator APEX1 (Homo sapiens) (UniProt P27695) (assay: qHTS Assay for Inhibitors of the Human Apurinic/apyrimidinic Endonuclease 1 (APE1)). Conditions: recombinant APE1, TAMRA/BHQ-2 abasic DNA cleavage fluorescence; activity change, negative = inhibition: at 65.8 µM (top of the series).
How it was run: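 Substrate: short duplex with […] THF abasic site, 5'-TAMRA and 3'-BHQ-2, 50 nM final. APE1 at 0.75 nM, preincubated 15 min RT with compound. Fluorescence increase from first to third read measured activity.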
`COc1ccc(Br)cc1C(=O)N/N=C/c1ccc([N+](=O)[O-])cc1` was tested, and the Potency was inconclusive: 39.8 µM [inhibitor, single point].
For `COc1ccc(-c2cc(=O)c3ccccc3[nH]2)cc1`, the Potency was inconclusive: 7.94 µM [inhibitor, single point].
For `COc1ccc(CCNS(=O)(=O)c2ccc(C3CNC(=O)C3)cc2)cc1OC` (stereo not given), the Potency was inconclusive: 3.16 µM [inhibitor, single point].
With `CC(=O)N1CCN(S(=O)(=O)c2cccc(C(=O)Nc3ccc4c(c3)OCO4)c2)CC1` the Potency was inconclusive: 25.1 µM [inhibitor, partial curve].
For `S=c1[nH]nc(-c2ccncc2)n1/N=C/c1cccc(Cl)c1`, the Potency was inconclusive: 2.82 µM [inhibitor, partial curve, poor fit].
In the case of `COc1ccc2cc3[n+](cc2c1OC)CCc1cc2c(cc1-3)OCO2`, the Potency is reported as “inactive”.
`O=C(O)CCN(CCC(=O)O)c1nnc(SCc2ccccc2)s1` was tested, and the Potency was inconclusive: 4.47 µM [inhibitor, partial curve, poor fit].
For `O=C(Cn1nc2ccccc2n1)N/N=C/c1cc([N+](=O)[O-])ccc1O`, the Potency was “inactive”.
In the case of `COc1ccc(-c2nc3c(c4c2C[C@H](c2ccccc2)OC4)CN(C(=O)NCc2ccco2)CC3)c(C)c1`, the activity change, negative = inhibition is reported as inactive: -5.47% [at 12.4 µM].
With `CCN(CC)C(=O)COc1cccc2ccccc12` the Potency was inconclusive: 39.8 µM [inhibitor, single point].
In the case of `CN(C)CCNC(=O)C(=O)Nc1cc2c3c(c1)CCC(=O)N3CCC2`, the Potency is reported as “inactive”.
For `CC(C)CNc1nc(N)c([N+](=O)[O-])c(N2CCCCCC2)n1`, the Potency was “inactive”.
For `COc1ccc(CN2CCC(=O)N([C@H](CO)CC(C)C)CC2)cc1OC`, the Potency was “inactive”.
In the case of `O=C(c1cccc(C(F)(F)F)c1)N(c1ccccn1)C1CCCCC1`, the Potency is reported as inconclusive: 20 µM [inhibitor, partial curve, poor fit].
`CN(Cc1ccco1)c1cc(-c2ccoc2)ncn1` was tested, and the Potency was inconclusive: 44.7 µM [inhibitor, single point].
With `Cc1cc(=O)oc2cc(NC(=O)c3cc(F)ccc3F)ccc12` the Potency was inconclusive: 21.2 µM [inhibitor, single point].
`CC(C)CC(=O)Nc1nnc(CSCc2ccc(F)cc2)s1` was tested, and the Potency was inconclusive: 3.55 µM [inhibitor, single point].
`CCC(C)NC(=O)c1cc(-c2ccc3c(c2)OCO3)on1` (stereo not given) was tested, and the Potency was “inactive”.
With `O=C1CC(c2ccccc2)n2nc(NS(=O)(=O)c3ccccc3)nc2N1` (stereo not given) the Potency was inconclusive: 44.7 µM [inhibitor, single point].
For `Cc1nc(NCc2ccccc2)c2nc(-c3ccccc3)n(CCN3CCCCC3)c2n1`, the Potency was inconclusive: 35.5 µM [inhibitor, partial curve, poor fit].
